Measured values reported in doi:10.1101/2024.02.08.579500.
Where two headings read alike, the source gives them in different places. These are yes or no findings as the source states them, for the method shown. In cells and extracts the contact can be indirect. A yes stands for co-enrichment or nearness to the bait. Other partners may have been found.

By UniProt entry, the sequences of proteins in these tests, tags left out.
UniProt P09884: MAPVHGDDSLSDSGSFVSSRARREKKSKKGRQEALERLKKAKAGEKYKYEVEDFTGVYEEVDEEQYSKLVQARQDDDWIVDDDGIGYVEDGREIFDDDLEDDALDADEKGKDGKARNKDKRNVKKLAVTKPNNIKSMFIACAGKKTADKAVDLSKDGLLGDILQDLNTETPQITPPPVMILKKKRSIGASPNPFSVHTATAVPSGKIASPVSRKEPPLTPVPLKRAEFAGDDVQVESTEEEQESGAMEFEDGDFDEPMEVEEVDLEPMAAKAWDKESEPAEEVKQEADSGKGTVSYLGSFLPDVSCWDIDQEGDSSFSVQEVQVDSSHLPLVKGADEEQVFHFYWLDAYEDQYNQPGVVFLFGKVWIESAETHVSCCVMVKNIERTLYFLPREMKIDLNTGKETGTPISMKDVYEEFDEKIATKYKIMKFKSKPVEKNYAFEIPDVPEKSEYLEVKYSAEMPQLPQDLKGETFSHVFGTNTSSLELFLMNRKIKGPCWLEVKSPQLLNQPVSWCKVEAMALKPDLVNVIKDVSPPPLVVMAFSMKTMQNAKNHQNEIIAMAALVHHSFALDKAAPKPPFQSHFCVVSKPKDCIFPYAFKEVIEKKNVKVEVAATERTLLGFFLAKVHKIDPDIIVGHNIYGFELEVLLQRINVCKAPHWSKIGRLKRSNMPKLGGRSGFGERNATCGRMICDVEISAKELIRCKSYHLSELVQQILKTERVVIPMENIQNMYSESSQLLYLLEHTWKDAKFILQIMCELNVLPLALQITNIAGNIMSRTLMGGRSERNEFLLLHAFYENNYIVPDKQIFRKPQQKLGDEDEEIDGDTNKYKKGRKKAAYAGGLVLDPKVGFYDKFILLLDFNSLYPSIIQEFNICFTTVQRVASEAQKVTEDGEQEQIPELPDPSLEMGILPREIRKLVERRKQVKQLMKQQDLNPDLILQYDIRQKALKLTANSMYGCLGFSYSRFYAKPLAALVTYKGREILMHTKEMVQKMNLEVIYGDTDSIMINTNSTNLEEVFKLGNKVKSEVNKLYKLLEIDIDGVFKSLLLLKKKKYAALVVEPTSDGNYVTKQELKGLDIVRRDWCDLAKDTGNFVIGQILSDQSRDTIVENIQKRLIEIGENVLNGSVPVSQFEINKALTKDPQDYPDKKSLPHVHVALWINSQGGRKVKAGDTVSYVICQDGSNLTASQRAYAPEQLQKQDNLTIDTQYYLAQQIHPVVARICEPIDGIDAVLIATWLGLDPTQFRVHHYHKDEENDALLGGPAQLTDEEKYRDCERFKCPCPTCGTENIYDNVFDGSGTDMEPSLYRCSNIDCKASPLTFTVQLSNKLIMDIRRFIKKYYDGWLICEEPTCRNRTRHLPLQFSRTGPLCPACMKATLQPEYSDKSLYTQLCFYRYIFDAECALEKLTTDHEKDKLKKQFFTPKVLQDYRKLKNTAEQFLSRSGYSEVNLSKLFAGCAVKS
UniProt P27694: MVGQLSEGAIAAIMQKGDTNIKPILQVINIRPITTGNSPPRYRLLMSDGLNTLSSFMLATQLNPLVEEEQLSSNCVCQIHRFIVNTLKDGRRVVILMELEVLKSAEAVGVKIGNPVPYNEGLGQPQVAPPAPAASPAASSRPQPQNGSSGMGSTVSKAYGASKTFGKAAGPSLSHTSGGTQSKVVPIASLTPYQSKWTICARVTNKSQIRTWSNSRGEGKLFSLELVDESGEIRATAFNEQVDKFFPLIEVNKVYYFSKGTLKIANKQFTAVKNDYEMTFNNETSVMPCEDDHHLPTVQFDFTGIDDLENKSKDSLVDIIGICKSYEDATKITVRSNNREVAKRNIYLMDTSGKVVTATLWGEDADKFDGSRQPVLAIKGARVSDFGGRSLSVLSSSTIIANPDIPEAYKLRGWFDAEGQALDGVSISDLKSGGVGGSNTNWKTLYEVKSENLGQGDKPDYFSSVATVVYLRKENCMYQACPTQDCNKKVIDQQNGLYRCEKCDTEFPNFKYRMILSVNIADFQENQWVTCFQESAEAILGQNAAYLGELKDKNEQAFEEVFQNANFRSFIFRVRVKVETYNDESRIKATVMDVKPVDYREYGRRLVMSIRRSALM
UniProt P15927: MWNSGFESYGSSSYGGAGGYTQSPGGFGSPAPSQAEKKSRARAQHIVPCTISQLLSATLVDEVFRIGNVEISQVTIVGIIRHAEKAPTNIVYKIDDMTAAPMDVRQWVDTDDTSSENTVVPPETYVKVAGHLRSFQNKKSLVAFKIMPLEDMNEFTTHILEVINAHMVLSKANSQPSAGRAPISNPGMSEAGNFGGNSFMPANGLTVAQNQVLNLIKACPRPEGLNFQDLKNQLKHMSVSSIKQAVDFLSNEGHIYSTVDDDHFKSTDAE

Experiments:
[1] = molecular target: DNA polymerase alpha catalytic subunit POLA1 (human (endogenous in HEK293T)) (UniProt P09884); experiment: affinity purification with mass spectrometry
[2] = molecular target: DNA polymerase alpha catalytic subunit POLA1 (human (endogenous in HEK293T)) (UniProt P09884); experiment: affinity purification with mass spectrometry; remark: listed apart in the source

Row | Molecule | binding [1] | binding [2]
1 | Replication protein A 70 kDa subunit RPA1 (from UniProt P27694 1-616) | binds | 
2 | Replication protein A 32 kDa subunit RPA2 (from UniProt P15927 1-270) | binds | 
3 | Primase subunit PRIM1 (protein, UniProt P49642 1-420) METFDPTELPELLKLYYRRLFPYSQYYRWLNYGGVIKNYFQHREFSFTLKDDIYIRYQSFNNQSDLEKEMQKMNPYKIDIGAVYSHRPNQHNTVKLGAFQAQEKELVFDIDMTDYDDVRRCCSSADICPKCWTLMTMAIRIIDRALKEDFGFKHRLWVYSGRRGVHCWVCDESVRKLSSAVRSGIVEYLSLVKGGQDVKKKVHLSEKIHPFIRKSINIIKKYFEEYALVNQDILENKESWDKILALVPETIHDELQQSFQKSHNSLQRWEHLKKVASRYQNNIKNDKYGPWLEWEIMLQYCFPRLDINVSKGINHLLKSPFSVHPKTGRISVPIDLQKVDQFDPFTVPTISFICRELDAISTNEEEKEENEAESDVKHRTRDYKKTSLAPYVKVFEHFLENLDKSRKGELLKKSDLQKDF |  | binds
4 | MCM3 (protein, UniProt P25205 1-808) MAGTVVLDDVELREAQRDYLDFLDDEEDQGIYQSKVRELISDNQYRLIVNVNDLRRKNEKRANRLLNNAFEELVAFQRALKDFVASIDATYAKQYEEFYVGLEGSFGSKHVSPRTLTSCFLSCVVCVEGIVTKCSLVRPKVVRSVHYCPATKKTIERRYSDLTTLVAFPSSSVYPTKDEENNPLETEYGLSVYKDHQTITIQEMPEKAPAGQLPRSVDVILDDDLVDKAKPGDRVQVVGTYRCLPGKKGGYTSGTFRTVLIACNVKQMSKDAQPSFSAEDIAKIKKFSKTRSKDIFDQLAKSLAPSIHGHDYVKKAILCLLLGGVERDLENGSHIRGDINILLIGDPSVAKSQLLRYVLCTAPRAIPTTGRGSSGVGLTAAVTTDQETGERRLEAGAMVLADRGVVCIDEFDKMSDMDRTAIHEVMEQGRVTIAKAGIHARLNARCSVLAAANPVYGRYDQYKTPMENIGLQDSLLSRFDLLFIMLDQMDPEQDREISDHVLRMHRYRAPGEQDGDAMPLGSAVDILATDDPNFSQEDQQDTQIYEKHDNLLHGTKKKKEKMVSAAFMKKYIHVAKIIKPVLTQESATYIAEEYSRLRSQDSMSSDTARTSPVTARTLETLIRLATAHAKARMSKTVDLQDAEEAVELVQYAYFKKVLEKEKKRKKRSEDESETEDEEEKSQEDQEQKRKRRKTRQPDAKDGDSYDPYDFSDTEEEMPQVHTPKTADSQETKESQKVELSESRLKAFKVALLDVFREAHAQSIGMNRLTESINRDSEEPFSSVEIQAALSKMQDDNQVMVSEGIIFLI |  | binds
5 | MCM5 (protein, UniProt P33992 1-734) MSGFDDPGIFYSDSFGGDAQADEGQARKSQLQRRFKEFLRQYRVGTDRTGFTFKYRDELKRHYNLGEYWIEVEMEDLASFDEDLADYLYKQPAEHLQLLEEAAKEVADEVTRPRPSGEEVLQDIQVMLKSDASPSSIRSLKSDMMSHLVKIPGIIIAASAVRAKATRISIQCRSCRNTLTNIAMRPGLEGYALPRKCNTDQAGRPKCPLDPYFIMPDKCKCVDFQTLKLQELPDAVPHGEMPRHMQLYCDRYLCDKVVPGNRVTIMGIYSIKKFGLTTSRGRDRVGVGIRSSYIRVLGIQVDTDGSGRSFAGAVSPQEEEEFRRLAALPNVYEVISKSIAPSIFGGTDMKKAIACLLFGGSRKRLPDGLTRRGDINLLMLGDPGTAKSQLLKFVEKCSPIGVYTSGKGSSAAGLTASVMRDPSSRNFIMEGGAMVLADGGVVCIDEFDKMREDDRVAIHEAMEQQTISIAKAGITTTLNSRCSVLAAANSVFGRWDETKGEDNIDFMPTILSRFDMIFIVKDEHNEERDVMLAKHVITLHVSALTQTQAVEGEIDLAKLKKFIAYCRVKCGPRLSAEAAEKLKNRYIIMRSGARQHERDSDRRSSIPITVRQLEAIVRIAEALSKMKLQPFATEADVEEALRLFQVSTLDAALSGTLSGVEGFTSQEDQEMLSRIEKQLKRRFAIGSQVSEHSIIKDFTKQKYPEHAIHKVLQLMLRRGEIQHRMQRKVLYRLK |  | binds
